Experimental findings from paper PMC3026819 are described below.

Amino acid sequences for entries named in this document (tags omitted).
UniProt P04233: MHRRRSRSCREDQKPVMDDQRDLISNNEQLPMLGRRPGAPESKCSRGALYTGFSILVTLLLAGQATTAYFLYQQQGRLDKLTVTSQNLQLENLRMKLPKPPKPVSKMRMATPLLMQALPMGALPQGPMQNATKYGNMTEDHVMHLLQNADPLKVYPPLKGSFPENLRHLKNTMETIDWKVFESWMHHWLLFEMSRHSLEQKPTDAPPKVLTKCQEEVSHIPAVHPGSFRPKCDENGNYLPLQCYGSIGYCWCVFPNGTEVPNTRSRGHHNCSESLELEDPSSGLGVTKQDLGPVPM
UniProt P49407: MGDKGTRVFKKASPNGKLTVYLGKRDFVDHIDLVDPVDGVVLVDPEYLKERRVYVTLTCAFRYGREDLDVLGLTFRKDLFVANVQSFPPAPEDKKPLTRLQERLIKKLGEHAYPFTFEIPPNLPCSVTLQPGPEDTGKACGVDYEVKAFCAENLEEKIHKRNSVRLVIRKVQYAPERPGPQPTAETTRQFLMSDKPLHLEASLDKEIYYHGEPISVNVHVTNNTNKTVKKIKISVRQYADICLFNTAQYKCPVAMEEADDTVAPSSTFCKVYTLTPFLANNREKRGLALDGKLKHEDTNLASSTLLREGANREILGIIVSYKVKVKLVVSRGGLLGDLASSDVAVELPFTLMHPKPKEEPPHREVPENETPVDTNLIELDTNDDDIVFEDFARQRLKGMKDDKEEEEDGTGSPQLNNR

No constants are given. Whether binding was seen depends on the method and setting. Binding seen in cells or lysates may run through a third protein. Some entries that bind do so weakly or less than the wild type.

In assay [1] the target is CD74-myc (human) (UniProt P04233). The experiment in a line: co-IP; COS-7 cells co-transfected, stimulated with MIF (200 ng/ml) for 1 h; lysis in 10 mM Tris-HCl pH 7.4, 150 mM NaCl, 1 mM EDTA, 1 mM EGTA, 1% Triton X-100 plus 0.5% NP-40; 2 µg antibody 30 min at 4°C, Protein A/G beads 60 min; western blot; reciprocal. Background: In western blotting, separated proteins are transferred to a membrane and probed.

The target is the same in assay [2]. The experiment in a line: co-IP; COS-7 cells co-transfected with ARRB1-GFP and CD74-myc for 36 h, without MIF stimulation; same lysis and immunoprecipitation; western blot.
Assay [3] addresses β-arrestin1-GFP (human) (UniProt P49407). The experiment in a line: co-IP; COS-7 cells co-transfected, stimulated with MIF (200 ng/ml) for 1 h; lysis in 10 mM Tris-HCl pH 7.4, 150 mM NaCl, 1 mM EDTA, 1 mM EGTA, 1% Triton X-100 plus 0.5% NP-40; 2 µg antibody 30 min at 4°C, Protein A/G beads 60 min; western blot; reciprocal.

As to “β-arrestin1-GFP (from UniProt P49407 1-418)”, the binding entry is reported as “binds” in assay [1] and “no binding (condition: cells without MIF stimulation)” in assay [2]. On to “CD74-myc (from UniProt P04233 1-296) (receptor)”, for which, in assay [3], the binding entry is recorded as “binds”.
